Data: PubChem BioAssay AID504467 (National Center for Advancing Translational Sciences (NCATS), 2011)
In all, about 330,000 compounds went through this assay and about 7,700 (2.3%) were called active. The inconclusive results got no clear call from the source; some entries with a clear call stand among them for comparison. Calls come from the whole dose curve; as a rule, active = well fitted inhibition curve with a large enough effect; inconclusive = small, poorly fitted or top-dose-only effect, or effect the other way; inactive = flat fitted curve, though single readings scatter. Where the call is inconclusive, the potency comes from a doubtful curve fit.

Test: qHTS screen for small molecules that inhibit ELG1-dependent DNA repair in human embryonic kidney (HEK293T) cells expressing luciferase-tagged ELG1; note: nearly all actives have a fitted effect of over 55% in size
Conditions: HEK293T ELG1-luciferase reporter, luminescence, 16 h, DNA damage induced by 5-fluorouridine; series mostly up to 46.1 µM
In short: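 Cells (2,000 per well) received 5-fluorouridine plus test compound or DMSO and were incubated 16 hr at 37 °C, 5% CO2. Luciferase activity was read by luminescence 30 min after ONE-Glo addition; signal suppression marked inhibition of damage-induced ELG1 function.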
Potency is the fitted concentration of half-maximal effect.

| SMILES | Potency |
| --- | --- |
| Cc1ccc2nc(-c3sc4nc(C)ccc4c3N)[nH]c2c1 | inconclusive: 0.92 µM [activator, partial curve] |
| Cc1ccc(OCCCCn2cnc3ccccc32)c(C)c1 | inactive |
| CC(/C=N/NC(=O)c1cc(-c2ccc(C)s2)[nH]n1)=C\c1ccccc1 | inconclusive: 6.51 µM [inhibitor, single point] |
| Oc1ccc(NCc2ccccc2OCc2ccccc2F)cc1 | inconclusive: 7.31 µM [inhibitor, partial curve] |
| CCOC(=O)c1sc(NC(C)=O)c(C(=O)OCC)c1C | inconclusive: 23.1 µM [inhibitor, partial curve, poor fit] |
| CC(=O)Nc1ccc(NC(=O)C/C(C)=N/NC(N)=S)cc1 | inactive |
| Cc1ccc(-n2nc3c(=O)n(C(C)C(=O)NCCCc4ccccc4)nc(C)c3c2C)cc1 (stereo not given) | inconclusive: 9.2 µM [inhibitor, partial curve] |
| CN(c1ccccc1)S(=O)(=O)c1cccc(NC(=O)COC(=O)C2CCCCC2)c1 | inactive |
| CCOC(=O)c1c(C)[nH]c(C)c1C(=O)COC(=O)c1ccc([N+](=O)[O-])s1 | inconclusive: 23.1 µM [inhibitor, single point] |
| CC(C)C(NC(=O)c1ccc(C(C)(C)C)cc1)C(=O)NCc1ccccn1 (stereo not given) | inconclusive: 29.1 µM [inhibitor, partial curve, poor fit] |
| Cc1cc(C(F)(F)F)nn1Cc1ccc(C(=O)NCc2ccco2)o1 | inconclusive: 0.651 µM [inhibitor, partial curve, poor fit] |
| O=C(O)c1ccc(-n2c(O)c(C=C3N=c4ccccc4=N3)sc2=S)cc1 | inconclusive: 7.3 µM [inhibitor, partial curve, poor fit] |
| FC(F)(F)c1ccc(CN2C[C@@H]3C(c4ccc(Cl)nc4)C4(c5cccnc5)CC3(C4)[C@H]2c2ccccc2)cc1 (stereo not given in full) | inactive |
| CCOC(=O)c1[nH]c2ccc(OC)cc2c1NC(=O)CN1CCSCC1 | inconclusive: 23.1 µM [inhibitor, partial curve] |
| CC(=O)N1c2ccc(S(=O)(=O)NCCC(=O)Nc3ccccc3C)cc2CC1C (stereo not given) | inconclusive: 10.3 µM [inhibitor, partial curve, poor fit] |
| COCCCNC(=O)c1ccc(-n2nc(C(F)(F)F)cc2-c2cccs2)cc1 | inconclusive: 29.1 µM [inhibitor, single point] |
| CC(C)n1nccc1N(Cc1ccc(Cl)cc1)S(=O)(=O)c1ccccc1 | inactive |
| COc1ccccc1OCCNC(=O)c1ccc2c(c1)CCC2 | inconclusive: 14.6 µM [activator, partial curve] |
| Cc1ccc(C(=O)Nc2ccc(N3CCN(C)CC3)cc2)c(Cl)c1 | inconclusive: 18.3 µM [activator, partial curve] |
| Cc1ccc(NC(=O)c2cc([N+](=O)[O-])ccc2Cl)c(O)c1 | inconclusive: 16.4 µM [activator, partial curve, poor fit] |
| Cc1n[nH]c(C)c1S(=O)(=O)N1CCCC(C(=O)NC2CCCc3ccccc32)C1 (stereo not given) | inconclusive: 20.6 µM [inhibitor, partial curve] |
| O=C(CCN1C(=O)c2ccccc2C1=O)Nc1ccc2c(c1)OCCO2 | inconclusive: 11.2 µM [activator, partial curve, poor fit] |
| Cc1ccccc1NC(=O)CON=C(N)c1ccccc1 | inactive |
| NC(=O)c1c(NC(=O)c2cnccn2)sc2c1CCCC2 | inconclusive: 6.51 µM [activator, partial curve] |

| SMILES | Potency |
| --- | --- |
| COC(=O)c1ccccc1NC(=O)c1ccc(-c2ccc(Br)cc2)o1 | inconclusive: 2.06 µM [activator, full curve] |
| CCN(Cc1ccccc1)S(=O)(=O)c1cc(C(=O)NC2CCCCCC2)ccc1OC | inconclusive: 11.6 µM [inhibitor, partial curve, poor fit] |
| COc1ccc(CCNC(=O)C2CCCN(S(=O)(=O)c3cc(C)ccc3OC)C2)cc1OC (stereo not given) | inconclusive: 25.9 µM [inhibitor, single point] |
| COc1ccc(-c2c3c(=O)n(C)c(=O)n(C)c3cn2C2CCCCC2)cc1 | inactive |
| O=C(CSc1ncn[nH]1)Nc1ccc(Cl)c(S(=O)(=O)N2CCOCC2)c1 | inactive |
| CC(NC(=O)CN1C(=O)NC2(CCCCCC2)C1=O)c1ccccc1Cl (stereo not given) | inconclusive: 16.4 µM [activator, single point] |
| Cc1ccc(-c2nc3ncccc3o2)cc1NC(=O)Cc1ccc(Cl)cc1 | inconclusive: 18.4 µM [activator, single point] |
| CCS(=O)(=O)N1CCN(S(=O)(=O)c2ccc3c(c2)OCCO3)CC1 | inactive |
| CC(=O)c1cnc(SCc2ccc(Cl)cc2)nc1C | inconclusive: 25.9 µM [activator, single point] |
| COc1cc(CN2CCN(Cc3ccc(C(F)(F)F)cc3)CC2)cc(OC)c1OC | inconclusive: 15.8 µM [inhibitor, single point] |
| O=C(Nc1ccc2c(c1)OCO2)c1cnccn1 | inconclusive: 16.4 µM [activator, partial curve] |
| Cc1ccc(N=C(NOCc2ccc(Cl)cc2Cl)c2nonc2N)c(C)c1 | inactive |
| CC(=O)Nc1ccc(S(=O)(=O)NCCC(=O)NCCCc2ccccc2)cc1 | inactive |
| CCOC(=O)c1cc(NC(=O)c2ccoc2C)cc(C(=O)OCC)c1 | active: 9.2 µM |
| COC(=O)CSc1nc(C)cc(C)c1C#N | inactive |
| O=C(Nc1ccc(N2CCCCC2)c(Cl)c1)c1cccnc1 | inconclusive: 3.26 µM [activator, full curve] |
| O=C(/C=C/c1cccs1)Nc1ccc(N2CCOCC2)c(S(=O)(=O)Nc2ccccc2Cl)c1 | inconclusive: 25.9 µM [inhibitor, partial curve, poor fit] |
| COc1ccc(CN2CC(=O)N(c3ccc(C)c(C)c3)C2=S)cc1OC | active: 16.4 µM |
| CC(C)n1cc(/C=C2\NC(=O)N(c3cccc(Cl)c3)C2=O)c2ccccc21 | inactive |
| Cn1c(N)c(C(=O)COC(=O)c2nc(Cl)ccc2Cl)c(=O)n(C)c1=O | inactive |
| Cc1nc2ccccn2c1C(=O)CSc1cccc(Cl)c1 | inconclusive: 18.3 µM [inhibitor, single point] |
| Cc1cc2cc(CN(Cc3cccs3)C(=S)NCC3CCCO3)c(=O)[nH]c2cc1C (stereo not given) | inconclusive: 29.1 µM [inhibitor, single point] |
| O=C(Nc1ccc(SC(F)(F)F)cc1)c1ccccn1 | inconclusive: 2.31 µM [activator, full curve] |
| Cn1cc(/C=C/C(=O)c2ccccc2)c2ccccc21 | inconclusive: 2.06 µM [activator, partial curve] |

2 compounds drawn at random from the list so far:

| SMILES | Potency |
| --- | --- |
| CCS(=O)(=O)N1CCN(S(=O)(=O)c2ccc3c(c2)OCCO3)CC1 | inactive |
| Cn1c(N)c(C(=O)COC(=O)c2nc(Cl)ccc2Cl)c(=O)n(C)c1=O | inactive |

Compounds shown so far that contain a nitro group on carbon:

| SMILES | Potency |
| --- | --- |
| CCOC(=O)c1c(C)[nH]c(C)c1C(=O)COC(=O)c1ccc([N+](=O)[O-])s1 | inconclusive: 23.1 µM [inhibitor, single point] |
| Cc1ccc(NC(=O)c2cc([N+](=O)[O-])ccc2Cl)c(O)c1 | inconclusive: 16.4 µM [activator, partial curve, poor fit] |

The list continues:

| SMILES | Potency |
| --- | --- |
| CN(C)c1ccc(CNc2ccccn2)cc1 | inconclusive: 20.6 µM [activator, partial curve] |
| O=C(/C=C/c1ccccc1[N+](=O)[O-])NC1CCCC1 | inactive |
| O=C(NCCNC(=O)c1ccccc1O)c1ccccc1O | inactive |
| O=C(Nc1ncc(Cc2cccc(Cl)c2Cl)s1)C1CCCO1 (stereo not given) | inconclusive: 23.1 µM [activator, partial curve] |
| COc1cccc(CN(C)C(=O)CCN(c2ccccc2)S(=O)(=O)c2ccc(C)cc2)c1OC | inconclusive: 20.6 µM [inhibitor, single point] |
| Cn1c2ccccc2n2c(=O)c(=O)n(CC(=O)c3ccc(F)cc3)nc12 | inconclusive: 18.4 µM [activator, partial curve, poor fit] |
| OCCNc1cc(-n2nc(-c3ccccc3)cc2-c2ccccc2)ncn1 | active: 16.4 µM |
| Cc1ccc(OCc2cc(C(=O)N(C)CCc3ccccc3)no2)cc1C | inconclusive: 10.3 µM [activator, partial curve] |
| CC(=O)NCCOC(=O)c1nn(Cc2ccccc2)c(=O)c2ccccc12 | inactive |
| CCCOc1ccc(OCCSc2nnc(N)s2)cc1 | inconclusive: 10.3 µM [activator, partial curve] |
| C/C=C/c1cc(CN2CCN(c3ccc(OC)cc3)CC2)c(O)c(OC)c1 | inconclusive: 16.4 µM [inhibitor, single point] |
| Clc1ccc(Cn2ncc3c(NCc4ccccc4)ncnc32)c(Cl)c1 | inconclusive: 5.8 µM [inhibitor, partial curve, poor fit] |
| O=c1c2[nH]c3ccc(F)cc3c2ncn1CC1CCCO1 (stereo not given) | inconclusive: 20.6 µM [activator, partial curve, poor fit] |
| O=C(Nc1ccc2c(c1)OCO2)c1ccc2c(c1)OCO2 | inconclusive: 2.59 µM [activator, full curve] |
| CNc1nc2c(-c3ccc(Cl)cc3)nnn2c2ccccc12 | inconclusive: 8.2 µM [activator, partial curve] |
| Cc1nc(P(=O)(c2ccccc2)c2ccccc2)c(N2CCOCC2)o1 | inactive |
| O=C(c1cccs1)N1CCN(Cc2cccc([N+](=O)[O-])c2)CC1 | inconclusive: 25.9 µM [inhibitor, partial curve, poor fit] |
| Cc1cc(=O)[nH]c(SCc2cccc(Br)c2)n1 | inactive |
| O=C(Nc1cccc(-c2cn3ccsc3n2)c1)c1ccccc1 | inconclusive: 22.4 µM [inhibitor, single point] |
| O=C(CCC(=O)NNc1nc2ccccc2c2nc(-c3ccccc3)nn12)NCCCN1CCOCC1 | inactive |
| COC(=O)c1ccccc1N(C)S(C)(=O)=O | inactive |
| CCOC(=O)c1c(C)[nH]c(C(=O)COC(=O)CN2C(=O)C3CCCCC3C2=O)c1C (stereo not given) | inconclusive: 20.6 µM [inhibitor, single point] |
